PubChem BioAssay AID602196, INSERM | 2012

Assay: 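Modifiers of cisplatin sensitivity in A549 cells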
Cell system: human A549 lung cancer cells
Reagents: siRNA pair against human genes
Duration: 48 h transfection before cisplatin; time from cisplatin to read-out not stated
Conditions: cisplatin at a dose killing half of control-siRNA cells; exact dose and duration not given
Detection: 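Cisplatin cell death as a shift from the 50% death seen with control siRNA; siRNAs toxic or growth-blocking alone scored 0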
Scale: two-siRNA summed score (-2 to +2): higher = both siRNAs protect from cisplatin killing; -2 means both sensitise; mean protection from cisplatin (shift in death) and protection from cisplatin (shift in death), siRNA C and protection from cisplatin (shift in death), siRNA D: higher = protection from cisplatin killing
Call rule: 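Each siRNA scores 0 if harmful alone by LDH or WST-1, otherwise +1 if it reduces and -1 if it increases cisplatin killing; a gene is active when both siRNAs agree (sum +2 or -2)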
Meaning of the calls: active = both siRNAs shift cisplatin killing the same way; inactive = no consistent shift, or siRNA harmful alone
This is a random part of about 23,000 reagents tested. 455 of them (2%) count as active. 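Active includes both protection and sensitisation; some change values fall well beyond the stated -50 to +50 range.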 Entries without a mark were called inactive. The numbers tell different reagents against one gene apart. No sequences are given here. Not stated in the record: the amount of reagent.

| gene | reagent | two-siRNA summed score (-2 to +2) | mean protection from cisplatin (shift in death) (%) | protection from cisplatin (shift in death), siRNA C (%) | protection from cisplatin (shift in death), siRNA D (%) |
| --- | --- | --- | --- | --- | --- |
| GRIK2 | 1 | -1 | -11.3 | 1.4 | -24 |
| OR5D14 | 1 | 1 | 16.1 | 30.3 | 2 |
| MAGED4B | 1 | 0 | 6 | 11.7 | 0.3 |
| RPA3 | 1 | -2 (active) | -12.9 | -16.5 | -9.2 |
| LOC402145 | 1 | 0 | 6.5 | 13.4 | -0.5 |
| LOC390364 | 1 | 0 | 4.2 | 8.2 | 0.3 |
| CA5B | 1 | 0 | -2.4 | -3.7 | -1.2 |
| MT1P3 | 1 | 0 | 27.4 | 46.3 | 8.5 |
| FAM169A-AS1 | 1 | 1 | 7.6 | 17.2 | -1.9 |
| ZNF280A | 1 | 1 | 20.4 | 18.3 | 22.4 |
| LOC441052 | 1 | 0 | 6.7 | 18.3 | -4.8 |
| ANKRD23 | 1 | -2 (active) | -11.6 | -11 | -12.3 |
| LOC253314 | 1 | 0 | 7.8 | 9.4 | 6.2 |
| IRF2BP1 | 1 | 0 | -23.1 | -26.3 | -20 |
| ZMYM6 | 1 | 0 | 24 | 20.7 | 27.4 |
| GARIN3 | 1 | 0 | -1.4 | -3.9 | 1.2 |
| EFNA5 | 1 | -1 | -15.8 | -12.1 | -19.6 |
| ATP6V1C1 | 1 | 2 (active) | 12.9 | 7.5 | 18.3 |
| ENPP2 | 1 | 1 | 20.9 | 24.5 | 17.2 |
| CRYBA2 | 1 | -1 | 8.8 | 29.7 | -12.1 |
| SLIT3 | 1 | 0 | 4.7 | 10.7 | -1.3 |
| LOC440458 | 1 | 0 | 12.3 | 14.1 | 10.5 |
| CDK5R2 | 1 | 1 | 5.6 | 9.2 | 2.1 |
| WDR6 | 1 | 0 | -4.8 | 8.3 | -17.8 |
| RUSC1-AS1 | 1 | 1 | 14.2 | 11.2 | 17.1 |
| CPS1 | 1 | 0 | 15 | 19.8 | 10.2 |
| TBC1D26 | 1 | 0 | 4 | 7.3 | 0.7 |
| DKFZp313P036 | 1 | 0 | 5.1 | 1.7 | 8.6 |
| LINC01697 | 1 | 1 | 10.2 | 10 | 10.4 |
| IKBKB | 1 | 0 | 0.7 | 2.7 | -1.3 |
| B3GAT2 | 1 | 1 | 6.5 | 12.6 | 0.4 |
| LOC440232 | 1 | 1 | 15.6 | 19.9 | 11.3 |
| CCN4 | 1 | 0 | -17.5 | -24.8 | -10.2 |
| SCG5 | 1 | 1 | 4.4 | -8.5 | 17.3 |
| PCYT1B | 1 | -1 | -2.7 | 8.9 | -14.3 |
| GSN | 1 | 0 | 19.4 | 26.6 | 12.1 |
| LOC442520 | 1 | 0 | 10.4 | 17.8 | 3 |
| TCP11 | 1 | 0 | 9.3 | 0.4 | 18.3 |
| IGFBP5 | 1 | 0 | 3.2 | -8 | 14.4 |
| CFAP46 | 1 | -1 | -19.2 | -35.4 | -3 |
| CFAP46 | 2 | 0 | -1.7 | 9.1 | -12.5 |
| LOC440368 | 1 | 0 | 2.1 | 1.3 | 2.9 |
| LOC389905 | 1 | 1 | 12.2 | 7.4 | 17 |
| CDRT4 | 1 | 1 | 7.2 | -6 | 20.5 |
| ZAR1 | 1 | -1 | -6.8 | -1.9 | -11.7 |
| LOC339521 | 1 | 1 | 10 | -3.5 | 23.4 |
| FBXO17 | 1 | 0 | -2.2 | -12.3 | 7.9 |
| AVEN | 1 | 1 | 8.5 | 1 | 16.1 |
| LOC402564 | 1 | 0 | 7.1 | 10.5 | 3.7 |
| SPATA22 | 1 | 0 | 7.9 | 12.7 | 3.1 |
| ITGA2B | 1 | 0 | 7.6 | 8.2 | 7.1 |
| FCF1 | 1 | 0 | 1.9 | 1 | 2.8 |
| LOC388006 | 1 | 0 | -3.1 | -0.3 | -5.8 |
| TRIM49D1 | 1 | 1 | 8.9 | 24.4 | -6.6 |
| EZRP1 | 1 | 0 | 0.5 | -4.9 | 5.8 |
| VWA3B | 1 | 0 | 16.1 | 3.9 | 28.2 |
| CLEC3A | 1 | 0 | 1.8 | 4.5 | -0.9 |
| BIK | 1 | 1 | 12.9 | 24.7 | 1.1 |
| ASPHD2 | 1 | 1 | 4.7 | -13.1 | 22.5 |
| FBXO3 | 1 | 0 | -0.7 | -13.8 | 12.3 |
| LOC401599 | 1 | 0 | 3.9 | -10.4 | 18.2 |
| GPR137 | 1 | 0 | -4.6 | -3.9 | -5.4 |
| UBTD2 | 1 | 0 | 6.9 | -2.1 | 15.9 |
| LEMD3 | 1 | 0 | 4.4 | 8.6 | 0.1 |
| ADAD2 | 1 | 0 | 2.8 | -0.4 | 6 |
| FKTN | 1 | 0 | 3.2 | 1.5 | 5 |
| COL12A1 | 1 | 1 | 13.9 | 13.1 | 14.7 |
| MAT1A | 1 | 0 | -2.5 | 3 | -8 |
| ZNF687 | 1 | -1 | -10.2 | 5.3 | -25.6 |
| LOC401642 | 1 | 0 | 15.1 | 7.3 | 23 |
| DDIT4L | 1 | 0 | 4 | 8 | -0.1 |
| AASDHPPT | 1 | 0 | 5.2 | 9 | 1.4 |
| DLAT | 1 | 0 | 8.5 | 4.3 | 12.8 |

A run of entries taken from the entries so far, as a working copy:
| gene | reagent | two-siRNA summed score (-2 to +2) | mean protection from cisplatin (shift in death) (%) | protection from cisplatin (shift in death), siRNA C (%) | protection from cisplatin (shift in death), siRNA D (%) |
| --- | --- | --- | --- | --- | --- |
| FBXO3 | 1 | 0 | -0.7 | -13.8 | 12.3 |
| LOC401599 | 1 | 0 | 3.9 | -10.4 | 18.2 |
| GPR137 | 1 | 0 | -4.6 | -3.9 | -5.4 |
| UBTD2 | 1 | 0 | 6.9 | -2.1 | 15.9 |
| LEMD3 | 1 | 0 | 4.4 | 8.6 | 0.1 |
